Assay [1] has as its target hypoxia inducible factor-1α (HIF-1α), endogenous (human (endogenous in RPMI, U266 and 293T)) (UniProt Q16665). Put plainly: co-IP; 293T cells cultured in a hypoxia condition; endogenous proteins (Supplementary Figure 10d).
For assay [2], the target named is HIF-1α in 293T cells with exogenous TRIM44 (Supplementary Figure 10c) (UniProt Q16665). Put plainly: co-IP; 293T cells with exogenous TRIM44 expression (Supplementary Figure 10c); details not shown.
Assay [3] has as its target hypoxia inducible factor-1α (HIF-1α), endogenous (human (endogenous in RPMI, U266 and 293T)) (UniProt Q16665). Put plainly: co-IP; TRIM44^OE RPMI, U266 and 293T cells cultured in hypoxia for 4 h; immunoprecipitated with IgG or HIF-1α antibodies, immunoblotted with TRIM44 or HIF-1α antibodies. On the technique in general: In western blotting, separated proteins are transferred to a membrane and probed.

The chains behind the UniProt entries cited, without tags or fusion partners.
UniProt Q16665: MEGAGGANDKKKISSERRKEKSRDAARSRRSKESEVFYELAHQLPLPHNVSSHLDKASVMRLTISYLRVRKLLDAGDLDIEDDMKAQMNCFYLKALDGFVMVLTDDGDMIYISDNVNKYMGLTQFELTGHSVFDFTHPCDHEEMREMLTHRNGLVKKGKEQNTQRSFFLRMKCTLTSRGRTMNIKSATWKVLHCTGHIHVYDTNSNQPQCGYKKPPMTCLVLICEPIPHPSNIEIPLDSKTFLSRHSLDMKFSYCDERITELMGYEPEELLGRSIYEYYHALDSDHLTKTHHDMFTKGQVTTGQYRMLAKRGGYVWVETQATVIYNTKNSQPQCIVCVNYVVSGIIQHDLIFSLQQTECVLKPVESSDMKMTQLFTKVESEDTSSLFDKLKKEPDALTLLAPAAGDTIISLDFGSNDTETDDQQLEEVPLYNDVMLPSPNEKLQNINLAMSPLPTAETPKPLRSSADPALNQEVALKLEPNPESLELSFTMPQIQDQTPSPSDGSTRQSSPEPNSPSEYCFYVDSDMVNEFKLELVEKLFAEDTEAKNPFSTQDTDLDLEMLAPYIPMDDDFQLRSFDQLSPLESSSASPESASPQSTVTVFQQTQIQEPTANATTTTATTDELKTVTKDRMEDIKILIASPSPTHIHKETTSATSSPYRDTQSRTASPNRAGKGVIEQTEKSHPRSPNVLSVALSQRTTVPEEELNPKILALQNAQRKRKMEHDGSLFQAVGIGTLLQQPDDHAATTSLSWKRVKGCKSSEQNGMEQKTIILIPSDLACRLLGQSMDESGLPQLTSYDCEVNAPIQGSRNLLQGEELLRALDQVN
UniProt Q96DX7: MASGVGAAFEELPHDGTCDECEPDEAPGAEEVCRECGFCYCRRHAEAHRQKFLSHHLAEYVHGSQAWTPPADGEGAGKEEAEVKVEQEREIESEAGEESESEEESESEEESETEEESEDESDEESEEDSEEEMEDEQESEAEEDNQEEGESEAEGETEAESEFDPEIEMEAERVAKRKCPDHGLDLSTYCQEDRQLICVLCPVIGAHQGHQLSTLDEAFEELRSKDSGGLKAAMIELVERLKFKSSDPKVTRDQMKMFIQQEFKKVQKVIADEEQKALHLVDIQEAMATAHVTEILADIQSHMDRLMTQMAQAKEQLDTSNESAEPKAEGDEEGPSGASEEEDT

No constants are given. Whether binding was seen depends on the method and setting. In cells and extracts the contact can be indirect. Some binding calls cover weakened binding; strength is not graded here.

For “TRIM44, endogenous in 293T cells (from UniProt Q96DX7 1-344)”, in assay [1], the binding entry was “binds”.
As for “exogenous TRIM44 expressed in 293T cells (from UniProt Q96DX7 1-344)”, in assay [2], the binding entry was “binds”.
Turning to “tripartite motif containing 44 (TRIM44), overexpressed by lentivirus (TRIM44^OE cells) (from UniProt Q96DX7 1-344)”, the binding entry in assay [3] is “binds”.

(Values after publication PMC6365383.)
